Binding data for three substances are collected here from article PMC2670979.

Sequences of proteins named here, by UniProt entry; tags and fusion partners are left off. A change or cut given only in a name is not applied to a line headed by its entry.
UniProt Q8IXI2: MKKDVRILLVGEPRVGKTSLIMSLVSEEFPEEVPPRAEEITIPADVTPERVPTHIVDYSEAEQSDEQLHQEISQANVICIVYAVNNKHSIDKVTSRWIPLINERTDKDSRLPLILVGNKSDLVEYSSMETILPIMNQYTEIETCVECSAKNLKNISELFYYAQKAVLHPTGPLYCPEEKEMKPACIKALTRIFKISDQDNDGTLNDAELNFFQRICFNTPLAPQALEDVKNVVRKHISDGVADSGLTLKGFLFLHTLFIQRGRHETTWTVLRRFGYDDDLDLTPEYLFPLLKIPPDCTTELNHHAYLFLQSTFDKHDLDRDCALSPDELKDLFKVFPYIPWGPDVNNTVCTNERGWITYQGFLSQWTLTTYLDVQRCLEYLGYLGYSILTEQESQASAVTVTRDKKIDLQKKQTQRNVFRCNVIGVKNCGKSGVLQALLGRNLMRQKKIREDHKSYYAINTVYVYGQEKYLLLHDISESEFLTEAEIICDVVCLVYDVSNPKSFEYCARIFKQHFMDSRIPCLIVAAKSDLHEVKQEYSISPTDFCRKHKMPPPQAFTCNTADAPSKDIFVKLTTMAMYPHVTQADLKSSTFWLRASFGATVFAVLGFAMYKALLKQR
UniProt Q12840: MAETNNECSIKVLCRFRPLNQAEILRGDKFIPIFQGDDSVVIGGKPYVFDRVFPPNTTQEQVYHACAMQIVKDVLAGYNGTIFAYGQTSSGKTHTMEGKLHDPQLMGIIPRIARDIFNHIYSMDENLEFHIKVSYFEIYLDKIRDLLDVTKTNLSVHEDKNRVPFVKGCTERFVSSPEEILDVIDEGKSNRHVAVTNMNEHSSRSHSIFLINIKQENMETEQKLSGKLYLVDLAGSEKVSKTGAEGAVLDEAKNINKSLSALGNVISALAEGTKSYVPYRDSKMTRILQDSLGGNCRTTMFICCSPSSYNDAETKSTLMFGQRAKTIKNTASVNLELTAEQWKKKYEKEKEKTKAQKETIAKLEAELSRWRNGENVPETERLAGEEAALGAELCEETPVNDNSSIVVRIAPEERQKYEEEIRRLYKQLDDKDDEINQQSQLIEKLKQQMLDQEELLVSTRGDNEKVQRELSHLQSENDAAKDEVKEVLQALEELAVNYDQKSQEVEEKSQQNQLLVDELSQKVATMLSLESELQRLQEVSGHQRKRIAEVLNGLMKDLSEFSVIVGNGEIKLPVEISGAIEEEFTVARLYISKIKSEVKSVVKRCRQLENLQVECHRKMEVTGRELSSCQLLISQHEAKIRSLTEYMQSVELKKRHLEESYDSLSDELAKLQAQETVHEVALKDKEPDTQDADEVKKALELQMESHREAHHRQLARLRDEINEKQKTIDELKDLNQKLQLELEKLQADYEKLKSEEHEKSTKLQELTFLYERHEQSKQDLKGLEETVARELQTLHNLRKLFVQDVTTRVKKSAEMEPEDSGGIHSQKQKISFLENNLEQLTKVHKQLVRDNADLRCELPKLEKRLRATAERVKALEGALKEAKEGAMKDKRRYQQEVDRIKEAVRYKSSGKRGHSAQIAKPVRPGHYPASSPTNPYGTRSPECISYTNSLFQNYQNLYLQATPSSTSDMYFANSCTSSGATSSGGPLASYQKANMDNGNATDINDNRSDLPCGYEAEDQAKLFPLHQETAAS
UniProt P33176: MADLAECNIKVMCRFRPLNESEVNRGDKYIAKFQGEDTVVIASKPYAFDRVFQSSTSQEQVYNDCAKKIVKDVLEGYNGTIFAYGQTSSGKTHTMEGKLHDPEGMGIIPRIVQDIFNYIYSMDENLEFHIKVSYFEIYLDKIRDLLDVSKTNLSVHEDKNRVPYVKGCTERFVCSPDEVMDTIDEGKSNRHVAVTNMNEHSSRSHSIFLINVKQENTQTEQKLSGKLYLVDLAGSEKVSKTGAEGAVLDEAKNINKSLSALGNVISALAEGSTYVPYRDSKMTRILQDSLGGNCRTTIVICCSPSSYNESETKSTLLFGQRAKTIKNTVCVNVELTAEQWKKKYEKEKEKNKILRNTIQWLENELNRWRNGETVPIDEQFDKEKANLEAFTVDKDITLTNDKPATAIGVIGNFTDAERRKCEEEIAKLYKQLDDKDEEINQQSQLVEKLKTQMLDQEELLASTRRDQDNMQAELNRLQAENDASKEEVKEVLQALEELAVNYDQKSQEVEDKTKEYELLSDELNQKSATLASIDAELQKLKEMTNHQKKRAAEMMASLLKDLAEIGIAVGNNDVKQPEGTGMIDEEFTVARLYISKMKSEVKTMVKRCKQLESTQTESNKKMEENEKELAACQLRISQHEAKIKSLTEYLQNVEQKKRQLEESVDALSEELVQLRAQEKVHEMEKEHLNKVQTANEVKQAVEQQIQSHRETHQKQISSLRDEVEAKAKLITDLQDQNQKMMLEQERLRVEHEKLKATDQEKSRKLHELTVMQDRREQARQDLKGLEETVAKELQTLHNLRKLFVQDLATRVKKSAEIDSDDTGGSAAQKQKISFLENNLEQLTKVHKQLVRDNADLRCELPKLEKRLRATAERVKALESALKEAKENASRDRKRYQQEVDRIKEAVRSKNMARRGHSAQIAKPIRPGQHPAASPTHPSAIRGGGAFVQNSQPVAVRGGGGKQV
UniProt O60282: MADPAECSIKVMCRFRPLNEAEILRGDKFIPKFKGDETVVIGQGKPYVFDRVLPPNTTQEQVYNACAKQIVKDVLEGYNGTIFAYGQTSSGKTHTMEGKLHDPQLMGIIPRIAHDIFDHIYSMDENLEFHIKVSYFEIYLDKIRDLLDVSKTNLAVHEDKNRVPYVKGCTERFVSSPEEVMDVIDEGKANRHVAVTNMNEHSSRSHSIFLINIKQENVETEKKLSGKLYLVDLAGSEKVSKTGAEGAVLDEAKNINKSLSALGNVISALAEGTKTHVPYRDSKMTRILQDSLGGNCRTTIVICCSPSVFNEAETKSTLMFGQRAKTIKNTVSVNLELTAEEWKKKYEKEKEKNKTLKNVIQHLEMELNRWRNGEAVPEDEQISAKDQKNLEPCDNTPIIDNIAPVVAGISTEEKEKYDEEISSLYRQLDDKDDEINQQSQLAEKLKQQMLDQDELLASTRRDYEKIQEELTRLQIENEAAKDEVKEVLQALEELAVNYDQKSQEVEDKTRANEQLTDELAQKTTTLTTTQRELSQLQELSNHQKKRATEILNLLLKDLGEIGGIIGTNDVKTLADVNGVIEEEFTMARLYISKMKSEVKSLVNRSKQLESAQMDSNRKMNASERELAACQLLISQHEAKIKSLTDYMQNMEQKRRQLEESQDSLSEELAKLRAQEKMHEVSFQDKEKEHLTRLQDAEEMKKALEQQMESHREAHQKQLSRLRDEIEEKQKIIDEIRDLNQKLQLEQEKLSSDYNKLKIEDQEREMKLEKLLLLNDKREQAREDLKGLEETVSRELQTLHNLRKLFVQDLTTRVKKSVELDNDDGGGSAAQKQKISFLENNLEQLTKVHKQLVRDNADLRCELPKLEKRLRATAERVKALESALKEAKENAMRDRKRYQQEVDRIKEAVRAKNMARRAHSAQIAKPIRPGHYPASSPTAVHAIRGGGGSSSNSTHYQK

Assay [1] has as its target GST-Miro1 WT (UniProt Q8IXI2). The experiment in a line: pull-down; 20 ug GST fusion protein (or GST alone) on glutathione sepharose beads; 2.5 ul of one 35S-labelled in vitro translated protein; 1-2 hr at 4°C; 50 mM HEPES, 125 mM NaCl, 5 mM H-EDTA; no other proteins in the system; no added Ca2+, repeated with 2 mM Ca2+; phosphor storage screen; only the target purified.

In assay [2] the target is GST-Miro1 WT (UniProt Q8IXI2). The experiment in a line: pull-down; as a1 but with KIF5C, TRAK2 (1-700) and GST-Miro1 (WT or ΔEF) all three present together; with and without Ca2+; only the target purified.
The target in assay [3] is GST-Miro1 ΔEF (UniProt Q8IXI2). Described as above.
For assay [4], the target named is GST-Miro1 ΔEF (UniProt Q8IXI2). The experiment in a line: pull-down; 20 ug GST fusion protein (or GST alone) on glutathione sepharose beads; 2.5 ul of one 35S-labelled in vitro translated protein; 1-2 hr at 4°C; 50 mM HEPES, 125 mM NaCl, 5 mM H-EDTA; no other proteins in the system; no added Ca2+, repeated with 2 mM Ca2+; phosphor storage screen; only the target purified.

These are yes or no findings as the source states them, for the method shown. In cells and extracts the contact can be indirect. Binding can be weak; no strength is given.

Regarding KIF5A (from UniProt Q12840 1-1032), the binding result in assay [1] is listed as “binds”.
On the same count and under the same terms, with KIF5B (from UniProt P33176 1-963) the entry was “binds”.
Turning to KIF5C (from UniProt O60282 1-957), the binding entry in assay [2], in assay [3], in assay [1] and in assay [4] was “binds” each time.
